The values that follow come from PubChem BioAssay AID662 (National Center for Advancing Translational Sciences (NCATS), 2007).

Where “and” joins values, the source holds several entries; their conditions need not be identical. Equal values may be shown once. This is one part of the list. Further columns of the screen follow, without active or inactive calls. The list favours compounds with an active or inconclusive main result. Words in brackets tell the shape of the fitted curve; partial curves, single points and poor fits give uncertain potencies.

This assay in a line: Cell signaling CRE-BLA (Fsk stim). The note with it: CHO CRE-bla reporter (cAMP response element driving beta-lactamase), forskolin EC10, beta-lactamase ratio; measured here: 460 nm blue channel. In short, it runs like this:
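CRE-bla CHO reporter cells treated with compound titration plus EC10 NKH 477 (water-soluble forskolin), incubated 3 h at 37 °C; CCF4 loading 2 h at room temperature, 460/530 nm emission ratio read, AC50 values derived for positive or negative modulators.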
In general, AC50 refers to the midpoint of the concentration-response curve, whichever way the signal moves. As to `Cc1nnc(SCC(=O)Nc2sccc2C(N)=O)n1Cc1ccccc1`, the AC50 was 20 µM [rising, single point].

As to `O=C(O)C1CCCCC1C(=O)NCCCN1CCOCC1` (centres undefined), the AC50 was 0.316 µM [falling, partial curve].

In the case of `CN1CCN(c2ncc3nc(-c4ccc(F)cc4)c(=O)n(Cc4cccs4)c3n2)CC1`, the AC50 is 2.51 µM [rising, full curve].

As to `COc1ccc(N(CC(=O)NCCSC(C)(C)C)S(C)(=O)=O)c(OC)c1`, the AC50 was 0.631 µM [rising, full curve].

As for `CCn1c(N)c(C(=O)NCc2ccc3c(c2)OCO3)sc1=S`, the half-maximal activity concentration (AC50) is 20 µM [rising, single point].

Regarding `COc1cc(C2C(C(=O)c3ccco3)=C(O)C(=O)N2c2cc(C)on2)cc(Br)c1O` (centres undefined), the AC50 was 25.1 µM [falling, single point].

With `COc1ccc(C(c2sc3ncnn3c2O)N2CC(C)OC(C)C2)cc1OC` (centres undefined), the concentration at half-maximal activity (AC50) is 10 µM [rising, partial curve].

Consider `Cc1cccc(CNc2cc(-c3ccoc3)ncn2)c1`, for which the AC50 is 12.6 µM [rising, partial curve].

As to `COc1ccc2nc(CC(C)(C)CC(=O)O)c[n+]([O-])c2c1`, the AC50 was 3.98 µM [rising, partial curve].

Consider `C=CCNC(=O)c1ccccc1Cl`, for which the AC50 was 5.01 µM [falling, single point].

For the compound `CC(C)(C)c1cc(Cc2ccccc2)[nH]n1`, the half-maximal activity concentration (AC50) was 10 µM [rising, partial curve].

As to `COC(=O)c1ccc(COc2ccc3c(C)c(C)c(=O)oc3c2)o1`, the AC50 was 0.00316 µM [falling, full curve, poor fit].

Take `CCn1c2ccccc2c2nnc(SCC(=O)c3ccccc3)nc21`: the AC50 was 3.16 µM [rising, partial curve].

`COc1cc2ccc(=O)oc2c(O)c1OCC=C(C)C`: the AC50 was 15.8 µM [rising, partial curve] and 10 µM [rising, single point].

Take `COc1ccc(NC(=O)Cn2nnc(C(=O)NCc3ccccc3)c2N)cc1Cl`: the AC50 is 2.51 µM [falling, partial curve, poor fit].

Consider `Cn1c(=O)c2c(ncn2CC(=O)N2CCN(c3ccccc3F)CC2)n(C)c1=O`, for which the AC50 is 0.398 µM [rising, partial curve].

Regarding `Cn1c(N2CCCC2)nc2c1c(=O)n(Cc1ccc(F)cc1)c(=O)n2C`, the AC50 was 3.16 µM [rising, full curve].

For `O=C(Cc1ccccc1)NCCSCc1ccco1`, the AC50 is 0.631 µM [falling, full curve, poor fit].

For `CCOC(=O)c1cnc2nc(C)[nH]n2c1=O`, the AC50 is 25.1 µM [rising, partial curve, poor fit].

With `Cc1sc2ncnc(SCC(=O)NC(=O)NCc3ccco3)c2c1C`, the AC50 is 12.6 µM [rising, partial curve].

Consider `CCn1ncc(Br)c1C(=O)Nc1ccc(F)cc1F`, for which the AC50 is 10 µM [rising, partial curve].

`O=C(O)CCc1ccc(-c2ccc(Br)cc2)n1CC(=O)O`: the AC50 is 1 µM [rising, single point].

On to `O=C(Nc1ccc(Cl)cc1)c1ccsn1`, for which the AC50 is 0.0501 µM [falling, full curve, poor fit].

Take `Cc1c(NC(=O)C2CCCNC2=O)c(=O)n(-c2ccccc2)n1C` (centres undefined): the AC50 is 31.6 µM [falling, partial curve].

For the compound `c1ccc2c(c1)oc1c(Nc3ccc4c(c3)OCO4)ncnc12`, the AC50 was 1.58 µM [rising, full curve].

As for `CCCc1cc(=O)oc2cc(C)c3c(C)coc3c12`, the AC50 is 10 µM [rising, partial curve].

Regarding `O=C1OC2(c3ccc(O)cc3Oc3cc(O)ccc32)c2c1c(-c1ccccc1)c(-c1ccccc1)c(-c1ccccc1)c2-c1ccccc1`, the AC50 is 0.00794 µM [falling, full curve, poor fit].

For `COc1cc2c(cc1OC)-c1cc3nc4ccccc4nc3n1C(C)(C)C2`, the AC50 was 15.8 µM [rising, partial curve].

Turning to `COc1cccc(NC(=O)CSc2nnc(-c3cc(-c4ccccn4)nc4ccccc34)o2)c1`, the AC50 was 3.98 µM [rising, single point].

As to `CCOc1cc2[nH]c(=O)n(CCCCC(=O)NCc3ccco3)c(=O)c2cc1OCC`, the AC50 was 0.1 µM [rising, full curve].

Take `O=C(COC(=O)CNC(=O)c1ccco1)NCCN1C(=O)CSC1=O`: the AC50 was 0.1 µM [falling, full curve, poor fit].

On to `CCN(CC)c1ncnc2c1cnn2C`, for which the AC50 is 12.6 µM [rising, single point].

Take `Cc1ccc(CN2C(=O)C(C)(C)Oc3ccc(C(=O)N4CCCCC4)cc32)cc1`: the AC50 is 12.6 µM [rising, partial curve].

Consider `Cc1cccn2c(=O)c3cc(C(=O)NCC4CCCO4)n(C)c3nc12` (centres undefined), for which the AC50 is 2 µM [rising, partial curve].

Take `Cc1ccc(O)c(CC(C)C)n1`: the AC50 is 3.16 µM [falling, full curve, poor fit].

Consider `O=C(O)c1cc(S(=O)(=O)O)ccc1O`, for which the AC50 is 25.1 µM [rising, single point].

On to `COc1ccccc1CNc1ncnc2ccc(-c3ccc4c(c3)OCO4)cc12`, for which the AC50 is 6.31 µM [rising, partial curve].

As for `Cc1cc(NC(=O)CSc2nc(C(C)C)nc3c2c(=O)n(C)c(=O)n3C)no1`, the AC50 was 7.94 µM [rising, partial curve].

On to `Nc1cccc2cnccc12`, for which the AC50 was 5.01 µM [falling, partial curve, poor fit].

`CC(=NCCN1CCOCC1)C1=C(O)c2ccccc2C1=O`: the AC50 is 12.6 µM [rising, single point].

For `COc1ccc(CCNC(=O)c2cc(-c3cc(C)c(C)cc3O)n[nH]2)cc1OC`, the AC50 is 0.794 µM [rising, partial curve].

Consider `CN(C)c1ccc(CN2CCCCCC2)cc1`, for which the AC50 is 0.0631 µM [falling, full curve].

For the compound `O=C(Nn1cnnc1)c1cc(-c2ccccn2)nc2ccccc12`, the AC50 was 0.158 µM [falling, full curve, poor fit].

On to `CCOC(=O)c1oc2c(CN3CCCCC3C)c(O)ccc2c(=O)c1-c1ccc(OC)c(OC)c1` (centres undefined), for which the AC50 was 25.1 µM [rising, single point].

With `CN1CCN(c2nc(-c3cccc(C#N)c3)nc3ccccc23)CC1`, the AC50 is 6.31 µM [rising, partial curve].

Take `Cc1cccn2c(=O)c3cc(C(=O)N4CCc5ccccc54)n(C)c3nc12`: the AC50 is 0.126 µM [rising, full curve].

In the case of `COc1ccc(CNc2nc(-c3ccccc3CN(C)C)nc3ccccc23)c(OC)c1`, the AC50 was 20 µM [rising, single point].

As for `CCSc1nnc(NC(=O)CCNS(=O)(=O)c2cc(Br)cnc2N)s1`, the AC50 is 12.6 µM [falling, single point].

Regarding `O=C1CCCCCC1C1(O)C(=O)Nc2ccc(Br)cc21` (centres undefined), the AC50 is 1 µM [falling, partial curve].

For the compound `c1csc(-c2cnc3ccccc3n2)c1`, the AC50 is 12.6 µM [rising, single point].

On to `C=CCn1c(=O)/c(=C/c2ccc(Cl)cc2)s/c1=C(/C#N)c1nnc2n1CCCCC2`, for which the AC50 was 12.6 µM [rising, single point].

Take `CCC(C)(C)NC(=O)CN(C(=O)c1snc(C(N)=O)c1N)c1ccc2c(c1)OCCO2`: the AC50 is 3.98 µM [rising, partial curve].

Consider `c1ccc(N2CCN(CCCOc3ccc4c(c3)OCO4)CC2)cc1`, for which the concentration at half-maximal activity (AC50) is 12.6 µM [rising, partial curve].

Consider `CCOc1ccccc1NC(=O)CSc1nnc(-c2ccccc2Cl)n1Cc1ccco1`, for which the AC50 is 25.1 µM [falling, single point].

Regarding `COC(=O)c1cc(CSc2nnc(NC3CCCCC3)s2)oc1C`, the AC50 is 0.794 µM [rising, full curve].

Turning to `NC(=O)c1cc2ccc(O)cc2oc1=Nc1ccccc1`, the half-maximal activity concentration (AC50) is 12.6 µM [rising, partial curve].

Consider `COc1cccc(OCc2nc3ncc(Br)cc3[nH]2)c1`, for which the AC50 was 12.6 µM [rising, single point].

Regarding `CCn1c(SCC(=O)N2CCc3ccccc3C2)nc2c1c(=O)n(C)c(=O)n2C`, the concentration at half-maximal activity (AC50) is 12.6 µM [rising, single point].

As to `COC(=O)c1ccccc1NC(=O)c1cnn2c(C(F)F)cc(C3CC3)nc12`, the AC50 is 3.16 µM [rising, full curve].

Take `CC(=O)Nc1cccc(-c2nnc(SCc3ccccc3C#N)n2C)c1`: the AC50 is 3.98 µM [rising, single point].

Turning to `CNc1nc(-c2ccccc2CN(C)C)nc2ccccc12`, the AC50 is 10 µM [rising, partial curve].

For `CCOc1cc2c(cc1C(C)(C)C)NC(=O)CS2`, the AC50 is 15.8 µM [rising, partial curve, poor fit].

`Fc1ccc(Nc2nc(-c3ccoc3)nc3ccccc23)cc1`: the AC50 is 5.01 µM [rising, partial curve].

Regarding `COCC(C)n1c(SCC(=O)NC(=O)Nc2ccc3c(c2)OCCO3)nc2ccccc2c1=O` (centres undefined), the AC50 was 7.94 µM [rising, partial curve].

For the compound `CCOC(=O)CC(=O)CSc1nc(C)cc(-c2cccnc2)c1C#N`, the AC50 was 12.6 µM [rising, partial curve].

Regarding `c1ccc(-c2nc(CSc3nnc(-c4cccs4)o3)cs2)cc1`, the AC50 was 3.98 µM [falling, partial curve].

Take `COc1cccc(C(=O)N(CN2CCCC2=O)c2cccc(Cl)c2)c1OC`: the AC50 is 25.1 µM [rising, single point].

For the compound `CCOP(=O)(c1c(F)c(F)c(F)c(F)c1F)C1(O)CCCCC1` (centres undefined), the AC50 was 2.51 µM [falling, partial curve].

As for `NC(=O)c1ccsc1NC(=O)c1nc(-c2ccccc2)n(-c2ccccc2)n1`, the AC50 was 25.1 µM [falling, single point].
